What all share (test): co-IP; lysates of COS7 cells transfected with full-length ARID3A or deletion mutants; polyclonal anti-ARID3A IP, Western blot with an EZRIN monoclonal antibody
On the technique in general: Immunoblotting shows a protein as a band on a membrane.

Assay [1] addresses T1, full-length ARID3A (residues 1–601) (UniProt Q62431).
T1 sequence: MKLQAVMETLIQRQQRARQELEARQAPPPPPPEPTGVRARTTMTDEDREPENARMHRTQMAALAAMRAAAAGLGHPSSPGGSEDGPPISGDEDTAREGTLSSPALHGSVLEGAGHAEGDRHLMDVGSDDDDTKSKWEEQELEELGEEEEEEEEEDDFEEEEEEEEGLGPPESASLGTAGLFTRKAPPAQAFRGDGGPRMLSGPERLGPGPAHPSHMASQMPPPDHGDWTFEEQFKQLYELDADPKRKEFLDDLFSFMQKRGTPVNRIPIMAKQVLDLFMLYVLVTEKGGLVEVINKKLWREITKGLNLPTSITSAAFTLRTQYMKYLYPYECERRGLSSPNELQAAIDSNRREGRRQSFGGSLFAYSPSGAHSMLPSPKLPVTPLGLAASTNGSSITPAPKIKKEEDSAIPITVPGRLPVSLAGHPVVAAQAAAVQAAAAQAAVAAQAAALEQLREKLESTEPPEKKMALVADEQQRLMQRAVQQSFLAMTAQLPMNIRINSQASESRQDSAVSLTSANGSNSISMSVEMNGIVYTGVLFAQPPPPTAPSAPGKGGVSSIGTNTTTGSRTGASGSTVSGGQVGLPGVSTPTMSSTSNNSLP

In assay [2] the target is T2, ARID3A d453–500 (UniProt Q62431).
T2 sequence: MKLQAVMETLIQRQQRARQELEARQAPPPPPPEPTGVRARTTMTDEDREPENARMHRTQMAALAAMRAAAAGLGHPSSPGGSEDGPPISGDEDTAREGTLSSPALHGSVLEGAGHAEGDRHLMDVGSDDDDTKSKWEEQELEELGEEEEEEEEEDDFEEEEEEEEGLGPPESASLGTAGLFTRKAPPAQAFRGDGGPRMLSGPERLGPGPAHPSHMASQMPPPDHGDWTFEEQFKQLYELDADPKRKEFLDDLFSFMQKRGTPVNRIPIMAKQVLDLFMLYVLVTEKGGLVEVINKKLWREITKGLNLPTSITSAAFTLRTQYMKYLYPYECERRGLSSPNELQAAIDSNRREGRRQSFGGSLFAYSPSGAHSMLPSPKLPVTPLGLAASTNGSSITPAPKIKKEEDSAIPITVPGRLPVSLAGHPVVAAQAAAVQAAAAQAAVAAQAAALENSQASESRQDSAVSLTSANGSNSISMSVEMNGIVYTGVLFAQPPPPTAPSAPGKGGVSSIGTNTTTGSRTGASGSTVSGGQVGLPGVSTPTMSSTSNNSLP

Assay [3] addresses T3, ARID3A d521–541 (UniProt Q62431).
T3 sequence: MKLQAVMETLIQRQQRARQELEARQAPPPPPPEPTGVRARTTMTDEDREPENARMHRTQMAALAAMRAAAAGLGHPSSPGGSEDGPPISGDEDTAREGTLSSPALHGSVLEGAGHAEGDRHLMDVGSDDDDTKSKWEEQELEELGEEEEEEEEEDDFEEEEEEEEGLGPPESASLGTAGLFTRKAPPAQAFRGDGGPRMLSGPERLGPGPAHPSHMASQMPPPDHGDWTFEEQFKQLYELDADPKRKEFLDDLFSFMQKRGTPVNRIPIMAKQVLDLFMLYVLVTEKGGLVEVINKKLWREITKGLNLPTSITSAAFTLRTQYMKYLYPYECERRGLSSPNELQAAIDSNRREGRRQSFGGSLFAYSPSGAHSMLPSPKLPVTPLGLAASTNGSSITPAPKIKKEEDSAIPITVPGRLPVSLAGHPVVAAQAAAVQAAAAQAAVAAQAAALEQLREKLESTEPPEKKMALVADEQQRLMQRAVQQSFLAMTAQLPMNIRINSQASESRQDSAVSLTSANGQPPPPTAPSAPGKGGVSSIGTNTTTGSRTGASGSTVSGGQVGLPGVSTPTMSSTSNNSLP

Assay [4] concerns the target T4, ARID3A t1–541 (UniProt Q62431).
T4 sequence: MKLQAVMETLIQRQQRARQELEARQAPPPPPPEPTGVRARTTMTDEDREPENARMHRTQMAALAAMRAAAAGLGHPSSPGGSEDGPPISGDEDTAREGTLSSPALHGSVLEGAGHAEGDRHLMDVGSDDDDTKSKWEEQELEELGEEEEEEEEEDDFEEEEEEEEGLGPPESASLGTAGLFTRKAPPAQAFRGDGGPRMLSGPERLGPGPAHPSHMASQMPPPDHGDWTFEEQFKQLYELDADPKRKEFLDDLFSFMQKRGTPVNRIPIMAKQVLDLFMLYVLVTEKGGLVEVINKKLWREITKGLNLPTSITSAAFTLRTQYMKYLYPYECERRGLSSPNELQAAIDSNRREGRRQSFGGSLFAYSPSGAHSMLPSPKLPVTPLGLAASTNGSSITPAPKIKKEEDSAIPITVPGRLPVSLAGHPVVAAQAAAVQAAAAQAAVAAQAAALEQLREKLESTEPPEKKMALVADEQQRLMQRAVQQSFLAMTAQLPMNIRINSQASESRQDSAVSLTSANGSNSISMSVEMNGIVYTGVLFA

No constants are given. Whether binding was seen depends on the method and setting. In cells and extracts the contact can be indirect. For some of these results: Binding calls can cover weak binding; strength is not graded here.

Take EZRIN (COS7 cells): the binding entry in assay [1] is on record as “binds”; in assay [2], “no binding”; in assay [3], “no binding”; in assay [4] it was “binds”.

(Values after paper PMC8005928.)
